The list shows a part of the results. Residues, ends and D or L forms follow the SMILES beside them. *: point of attachment. Cbz = O=C(OCc1ccccc1)*
Columns and labels:
Test in all cases: log2 fold change, soluble protein after heating vs DMSO (PISA); higher = thermal stabilisation; K562 cells, 10 uM, 30 min; active = over 0.2 and 3.5 SD of the protein, either way, in both replicates (recomputed)
[1] = compound: C1COCCN1CCN2C3=CC=CC=C3N=C2NC(=O)C4=CC(=CC=C4)[N+](=O)[O-] [IRAK-1-4 Inhibitor I]
Method in brief: (§1)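 K562 cells at 2×10^6 cells/mL were exposed to 10 μM compound for 30 min, then aliquots were heated for 3 min across 48°C-58°C, pooled, and extracted in PBS containing 0.5% NP-40 at 4°C. The supernatant after 21,000xg for 90 min was taken as soluble protein and measured by TMTpro 16plex LC-MS/MS with channel sums equalised. Thermal stability is reported relative to control samples, with values from duplicates. Fold changes are given on a log2 scale.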

By UniProt entry, the sequences of proteins in these tests, tags left out. Where a name states a change or a piece, a line headed by the entry shows the natural chain unless it says otherwise.
UniProt P18615, whole entry, looked up: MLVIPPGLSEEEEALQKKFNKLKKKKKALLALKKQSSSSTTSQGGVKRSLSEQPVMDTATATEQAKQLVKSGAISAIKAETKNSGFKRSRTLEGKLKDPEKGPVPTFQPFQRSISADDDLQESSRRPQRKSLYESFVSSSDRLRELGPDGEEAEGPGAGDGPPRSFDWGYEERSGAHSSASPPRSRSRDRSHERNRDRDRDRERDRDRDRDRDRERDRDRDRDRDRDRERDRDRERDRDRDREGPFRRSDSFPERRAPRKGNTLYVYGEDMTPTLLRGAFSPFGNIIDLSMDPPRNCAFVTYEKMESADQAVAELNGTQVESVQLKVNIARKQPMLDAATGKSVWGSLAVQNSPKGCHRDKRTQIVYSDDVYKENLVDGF
UniProt Q9BXD5: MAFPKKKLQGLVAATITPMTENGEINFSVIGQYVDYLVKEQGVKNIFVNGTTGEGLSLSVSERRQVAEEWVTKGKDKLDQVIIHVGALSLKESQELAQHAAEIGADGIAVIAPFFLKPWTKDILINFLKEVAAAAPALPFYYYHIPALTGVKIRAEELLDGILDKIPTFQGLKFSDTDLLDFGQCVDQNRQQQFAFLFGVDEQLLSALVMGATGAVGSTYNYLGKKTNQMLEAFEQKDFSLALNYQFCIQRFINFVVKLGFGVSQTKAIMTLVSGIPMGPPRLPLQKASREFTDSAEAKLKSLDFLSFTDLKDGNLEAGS
UniProt P22392, whole entry, looked up: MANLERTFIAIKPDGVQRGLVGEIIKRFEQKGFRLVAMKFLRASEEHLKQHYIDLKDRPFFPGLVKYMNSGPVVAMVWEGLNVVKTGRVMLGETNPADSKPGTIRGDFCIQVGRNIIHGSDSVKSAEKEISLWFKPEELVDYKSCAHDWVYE
UniProt Q9NX24: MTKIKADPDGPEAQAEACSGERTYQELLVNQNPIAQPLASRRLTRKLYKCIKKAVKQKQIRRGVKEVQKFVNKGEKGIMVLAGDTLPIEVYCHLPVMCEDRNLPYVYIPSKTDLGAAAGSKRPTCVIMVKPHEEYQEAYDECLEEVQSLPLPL
UniProt O60524: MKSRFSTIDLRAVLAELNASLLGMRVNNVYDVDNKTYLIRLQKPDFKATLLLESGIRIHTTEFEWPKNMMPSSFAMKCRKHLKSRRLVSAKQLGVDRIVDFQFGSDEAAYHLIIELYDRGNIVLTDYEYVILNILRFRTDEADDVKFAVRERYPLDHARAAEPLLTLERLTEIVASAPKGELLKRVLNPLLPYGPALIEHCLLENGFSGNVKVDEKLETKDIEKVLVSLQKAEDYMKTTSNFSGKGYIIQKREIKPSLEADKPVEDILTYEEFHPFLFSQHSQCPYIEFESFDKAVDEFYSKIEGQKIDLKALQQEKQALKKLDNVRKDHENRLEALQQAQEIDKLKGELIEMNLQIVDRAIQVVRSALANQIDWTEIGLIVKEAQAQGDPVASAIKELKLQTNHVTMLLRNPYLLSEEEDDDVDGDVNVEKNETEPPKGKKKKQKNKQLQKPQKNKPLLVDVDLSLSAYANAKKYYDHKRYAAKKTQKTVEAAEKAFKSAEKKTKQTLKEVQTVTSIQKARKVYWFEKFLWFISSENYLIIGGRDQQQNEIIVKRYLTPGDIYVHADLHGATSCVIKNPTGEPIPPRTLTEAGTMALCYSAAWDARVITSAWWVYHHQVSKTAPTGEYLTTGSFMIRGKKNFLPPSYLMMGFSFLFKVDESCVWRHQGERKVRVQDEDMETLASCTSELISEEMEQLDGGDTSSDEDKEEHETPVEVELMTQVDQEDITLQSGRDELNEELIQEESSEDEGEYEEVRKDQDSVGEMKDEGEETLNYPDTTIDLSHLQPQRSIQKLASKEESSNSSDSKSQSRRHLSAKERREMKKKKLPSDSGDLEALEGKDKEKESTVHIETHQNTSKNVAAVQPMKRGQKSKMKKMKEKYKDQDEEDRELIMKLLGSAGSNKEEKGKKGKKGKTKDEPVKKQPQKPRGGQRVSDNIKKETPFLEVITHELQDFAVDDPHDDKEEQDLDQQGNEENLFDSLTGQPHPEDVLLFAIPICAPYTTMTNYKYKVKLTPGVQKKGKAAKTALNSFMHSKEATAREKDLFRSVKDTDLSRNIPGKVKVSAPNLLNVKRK
UniProt Q13287: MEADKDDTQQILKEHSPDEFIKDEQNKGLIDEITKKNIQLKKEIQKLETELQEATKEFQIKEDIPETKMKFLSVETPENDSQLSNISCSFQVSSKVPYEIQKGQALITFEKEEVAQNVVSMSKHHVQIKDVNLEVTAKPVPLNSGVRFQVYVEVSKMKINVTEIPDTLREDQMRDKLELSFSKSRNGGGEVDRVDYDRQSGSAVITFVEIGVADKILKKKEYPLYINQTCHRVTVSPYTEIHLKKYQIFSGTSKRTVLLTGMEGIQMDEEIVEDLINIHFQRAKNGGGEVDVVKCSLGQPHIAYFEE
UniProt Q12857, whole entry, looked up: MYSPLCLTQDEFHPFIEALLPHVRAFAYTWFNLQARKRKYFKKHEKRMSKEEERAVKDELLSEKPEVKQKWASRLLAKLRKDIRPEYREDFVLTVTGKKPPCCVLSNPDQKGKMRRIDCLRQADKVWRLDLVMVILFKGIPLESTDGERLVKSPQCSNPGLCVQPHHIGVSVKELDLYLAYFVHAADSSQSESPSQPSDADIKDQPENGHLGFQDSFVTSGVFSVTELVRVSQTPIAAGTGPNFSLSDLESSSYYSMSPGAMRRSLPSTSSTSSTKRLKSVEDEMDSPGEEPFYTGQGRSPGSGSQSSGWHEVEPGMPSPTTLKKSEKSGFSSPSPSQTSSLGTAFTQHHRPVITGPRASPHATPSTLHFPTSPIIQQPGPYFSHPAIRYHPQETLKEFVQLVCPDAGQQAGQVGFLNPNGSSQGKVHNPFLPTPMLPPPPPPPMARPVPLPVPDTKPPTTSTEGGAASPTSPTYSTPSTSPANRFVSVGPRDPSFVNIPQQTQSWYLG
UniProt Q9UFN0: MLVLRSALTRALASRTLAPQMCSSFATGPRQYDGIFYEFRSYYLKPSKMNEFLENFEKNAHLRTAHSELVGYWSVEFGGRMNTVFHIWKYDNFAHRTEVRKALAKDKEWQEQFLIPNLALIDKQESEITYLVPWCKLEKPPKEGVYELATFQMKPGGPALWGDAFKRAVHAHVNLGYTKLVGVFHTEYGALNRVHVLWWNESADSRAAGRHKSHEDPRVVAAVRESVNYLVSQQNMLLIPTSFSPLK
UniProt Q9UMX5: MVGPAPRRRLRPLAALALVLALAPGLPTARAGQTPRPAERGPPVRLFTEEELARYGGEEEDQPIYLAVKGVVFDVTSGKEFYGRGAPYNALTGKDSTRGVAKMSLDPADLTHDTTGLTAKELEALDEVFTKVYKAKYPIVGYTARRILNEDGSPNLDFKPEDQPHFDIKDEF
UniProt P23511, whole entry, looked up: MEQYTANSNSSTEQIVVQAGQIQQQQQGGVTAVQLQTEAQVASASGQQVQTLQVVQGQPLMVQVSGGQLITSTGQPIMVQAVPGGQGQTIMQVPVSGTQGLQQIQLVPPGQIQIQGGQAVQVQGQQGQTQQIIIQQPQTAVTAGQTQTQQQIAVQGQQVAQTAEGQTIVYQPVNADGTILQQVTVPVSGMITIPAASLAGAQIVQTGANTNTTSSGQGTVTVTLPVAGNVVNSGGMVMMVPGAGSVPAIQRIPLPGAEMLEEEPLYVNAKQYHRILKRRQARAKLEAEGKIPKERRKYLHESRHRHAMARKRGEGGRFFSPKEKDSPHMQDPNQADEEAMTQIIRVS
UniProt Q92636: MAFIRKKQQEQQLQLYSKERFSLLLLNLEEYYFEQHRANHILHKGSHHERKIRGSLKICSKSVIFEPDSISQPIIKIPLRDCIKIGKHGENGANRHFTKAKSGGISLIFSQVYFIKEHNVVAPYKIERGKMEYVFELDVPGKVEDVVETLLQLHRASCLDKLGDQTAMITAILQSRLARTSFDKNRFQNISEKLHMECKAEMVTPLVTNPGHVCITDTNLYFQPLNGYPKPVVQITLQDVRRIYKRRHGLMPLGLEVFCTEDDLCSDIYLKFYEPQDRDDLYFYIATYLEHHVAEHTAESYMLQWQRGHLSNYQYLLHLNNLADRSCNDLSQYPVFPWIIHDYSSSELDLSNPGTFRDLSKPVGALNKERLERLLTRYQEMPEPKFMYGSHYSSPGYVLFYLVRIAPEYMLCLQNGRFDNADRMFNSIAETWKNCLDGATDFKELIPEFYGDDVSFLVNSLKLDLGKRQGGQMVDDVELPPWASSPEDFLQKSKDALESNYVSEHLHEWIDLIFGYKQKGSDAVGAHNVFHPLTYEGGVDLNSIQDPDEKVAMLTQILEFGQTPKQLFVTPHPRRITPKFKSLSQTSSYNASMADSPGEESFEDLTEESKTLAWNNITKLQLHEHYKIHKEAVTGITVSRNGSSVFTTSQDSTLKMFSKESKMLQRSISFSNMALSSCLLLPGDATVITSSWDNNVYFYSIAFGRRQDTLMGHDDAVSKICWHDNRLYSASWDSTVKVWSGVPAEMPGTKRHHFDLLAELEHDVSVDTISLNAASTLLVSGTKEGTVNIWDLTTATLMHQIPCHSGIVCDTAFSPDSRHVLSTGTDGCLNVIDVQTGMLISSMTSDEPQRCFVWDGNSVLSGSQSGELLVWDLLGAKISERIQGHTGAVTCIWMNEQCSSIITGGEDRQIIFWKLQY
UniProt Q15233: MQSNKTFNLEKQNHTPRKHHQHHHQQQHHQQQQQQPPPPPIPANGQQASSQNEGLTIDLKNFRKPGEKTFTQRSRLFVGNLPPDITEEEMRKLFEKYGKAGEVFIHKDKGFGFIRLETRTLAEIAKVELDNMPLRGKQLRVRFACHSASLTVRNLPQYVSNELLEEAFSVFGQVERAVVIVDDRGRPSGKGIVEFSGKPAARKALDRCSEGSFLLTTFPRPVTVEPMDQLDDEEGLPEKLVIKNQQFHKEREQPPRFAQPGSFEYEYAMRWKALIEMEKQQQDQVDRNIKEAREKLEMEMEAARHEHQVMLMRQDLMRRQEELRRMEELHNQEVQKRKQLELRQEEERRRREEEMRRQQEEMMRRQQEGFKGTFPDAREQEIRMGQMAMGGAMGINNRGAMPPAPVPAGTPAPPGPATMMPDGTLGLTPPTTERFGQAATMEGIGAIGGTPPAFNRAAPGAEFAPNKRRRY
UniProt Q9Y639: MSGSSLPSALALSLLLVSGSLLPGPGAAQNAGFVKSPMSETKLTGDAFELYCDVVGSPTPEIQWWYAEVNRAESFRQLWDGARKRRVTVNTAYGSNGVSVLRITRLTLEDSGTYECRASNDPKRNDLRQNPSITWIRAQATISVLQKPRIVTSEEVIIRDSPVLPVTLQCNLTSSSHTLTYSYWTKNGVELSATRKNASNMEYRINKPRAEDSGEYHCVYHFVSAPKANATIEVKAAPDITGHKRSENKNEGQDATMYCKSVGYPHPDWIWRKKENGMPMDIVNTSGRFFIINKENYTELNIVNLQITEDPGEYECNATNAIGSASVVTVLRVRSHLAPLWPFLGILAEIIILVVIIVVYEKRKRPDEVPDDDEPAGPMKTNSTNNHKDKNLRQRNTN
UniProt Q9UHY1: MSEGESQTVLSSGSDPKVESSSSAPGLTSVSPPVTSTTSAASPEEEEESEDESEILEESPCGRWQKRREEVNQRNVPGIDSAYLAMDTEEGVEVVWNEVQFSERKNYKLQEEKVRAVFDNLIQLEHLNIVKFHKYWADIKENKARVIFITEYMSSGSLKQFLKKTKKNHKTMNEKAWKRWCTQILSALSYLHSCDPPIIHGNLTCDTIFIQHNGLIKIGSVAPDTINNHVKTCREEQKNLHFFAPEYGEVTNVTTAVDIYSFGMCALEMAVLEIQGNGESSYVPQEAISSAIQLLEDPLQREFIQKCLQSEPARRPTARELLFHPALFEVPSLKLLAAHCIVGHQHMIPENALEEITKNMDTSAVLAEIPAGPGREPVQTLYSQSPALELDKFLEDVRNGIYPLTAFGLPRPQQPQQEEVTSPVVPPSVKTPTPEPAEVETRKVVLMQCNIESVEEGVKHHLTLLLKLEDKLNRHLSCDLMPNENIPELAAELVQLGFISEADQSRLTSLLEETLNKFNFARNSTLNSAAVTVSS
UniProt Q86X76: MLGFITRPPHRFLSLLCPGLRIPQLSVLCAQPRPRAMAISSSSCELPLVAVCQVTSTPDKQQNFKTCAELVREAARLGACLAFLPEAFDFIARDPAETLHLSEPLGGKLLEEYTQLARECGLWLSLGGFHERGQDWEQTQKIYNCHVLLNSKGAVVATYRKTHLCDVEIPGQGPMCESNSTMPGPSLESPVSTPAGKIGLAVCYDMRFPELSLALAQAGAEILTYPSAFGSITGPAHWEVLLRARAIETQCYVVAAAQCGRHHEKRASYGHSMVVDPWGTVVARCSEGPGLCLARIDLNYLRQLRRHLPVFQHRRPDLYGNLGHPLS

[2] = compound: C=CC(=O)N1CCC[C@@H](n2nc(-c3ccc(Oc4ccccc4)cc3)c3c(N)ncnc32)C1 [ibrutinib]
Method in brief: as §1

[3] = compound: CC(=O)c1cnc2ccc(-c3cc(Cl)c(O)c(Cl)c3)nc2c1N[C@H]1CC[C@H](CN(C)C)CC1
Method in brief: as §1

[4] = compound: CC(C)(C)Cn1c(N)nc2ccc(-c3[nH]c(C(C)(C)C)nc3-c3ccc(F)cc3)nc21 [ralimetinib]
Method in brief: as §1

[5] = compound: CC(C)(O)CC(=O)NCCn1ccc2ncnc(Nc3ccc(Oc4cccc(C(F)(F)F)c4)c(Cl)c3)c21
Method in brief: as §1

[6] = compound: CC(C)C1=C2N=C(C=C(N2N=C1)NCC3=CC=CC=C3)NCCCCCCN
Method in brief: as §1

[7] = compound: CC(C)C[C@@H](C=O)NC(=O)[C@H](CC(C)C)NC(=O)[C@H](CC(C)C)NC(=O)OCc1ccccc1
Method in brief: as §1

[8] = compound: CC(C)N(C[C@H]1O[C@@H](n2cnc3c(N)ncnc32)[C@H](O)[C@@H]1O)[C@H]1C[C@@H](CCc2nc3cc(C(C)(C)C)ccc3[nH]2)C1 [pinometostat]
Method in brief: as §1

[9] = compound: CC1=C(C(CC(=O)N1)C2=CC=C(C=C2)C(F)(F)F)C(=O)NC3=C(C=C4C(=C3)C=NN4)F
Method in brief: as §1

[10] = compound: CC1=C(C2=C(C=C1)C(=O)C3=CC=CC=C3N2CCCN)C
Method in brief: as §1

[11] = compound: CC1=C(C=C(C=C1)NC(=O)C2=CC(=CC=C2)C(C)(C)C#N)NC3=CC4=C(C=C3)N=CN(C4=O)C
Method in brief: as §1

[12] = compound: CC1=C(C=C(C=C1)NC(=O)C2=CC(=CC=C2)N(C)C)NC(=O)C3=CC=C(C=C3)O
Method in brief: as §1

[13] = compound: CC1=CC=C(C=C1)SC2=C3C=C(SC3=CN=C2)C(=O)N
Method in brief: as §1

[14] = compound: CC1=NC(=CC=C1)C2=C(N=C(N2)C(C)(C)C)C3=CC4=NC=CN=C4C=C3
Method in brief: as §1

[15] = compound: CCCCN(Cc1ccc(C(=O)NO)cc1)C(=O)Nc1ccccc1 [Nexturastat A]
Method in brief: as §1

[16] = compound: CCCS(=O)(=O)Nc1ccc(F)c(C(=O)c2c[nH]c3ncc(-c4ccc(Cl)cc4)cc23)c1F [vemurafenib]
Method in brief: as §1

[17] = compound: CCCS(=O)(=O)Nc1ccc(F)c(C(=O)c2c[nH]c3ncc(Cl)cc23)c1F
Method in brief: as §1

[18] = compound: CCCc1cc(C)[nH]c(=O)c1CNC(=O)c1cc(-c2ccnc(N3CCN(C)CC3)c2)cc2c1cnn2C(C)C
Method in brief: as §1

[19] = compound: CCN(CC)Cc1ccc2cc(COC(=O)Nc3ccc(C(=O)NO)cc3)ccc2c1 [givinostat]
Method in brief: as §1

[20] = compound: CCN(CCCOc1ccc2c(Nc3cc(CC(=O)Nc4cccc(F)c4)[nH]n3)ncnc2c1)CCOP(=O)(O)O [barasertib]
Method in brief: as §1

Measured: log2 fold change

NIPA2 (UniProt Q8N8Q9)
inactive: [1] 0.033 | [2] 0.008 | [3] -0.058 | [4] 0.159 | [5] -0.081 | [6] 0.036 | [7] 0.053 | [8] -0.031 | [9] -0.106 | [10] -0.018 | [11] -0.181 | [12] -0.058 | [13] -0.024 | [14] 0.044 | [15] -0.057 | [16] -0.019 | [17] 0.018 | [18] -0.147 | [19] 0.031 | [20] -0.016

NELFE isoform 3 (UniProt P18615)
inactive: [1] -0.013 | [2] -0.011 | [3] -0.139 | [4] -0.061 | [5] 0.009 | [6] -0.057 | [7] 0.149 | [8] 0.024 | [9] 0.008 | [10] 0.028 | [11] 0.006 | [12] 0.024 | [13] -0.02 | [14] 0.03 | [15] -0.059 | [16] 0.079 | [17] 0.005 | [18] -0.001 | [19] 0.018 | [20] 0.05

NPL (UniProt Q9BXD5)
inactive: [1] -0.089 | [2] 0.041 | [3] -0.006 | [4] 0.107 | [5] -0.013 | [6] 0.071 | [7] -0.129 | [8] 0.043 | [9] -0.038 | [10] -0.029 | [11] 0.047 | [12] 0.237 | [13] 0.022 | [14] 0.017 | [15] -0.095 | [16] -0.073 | [17] 0.009 | [18] -0.025 | [19] 0.029 | [20] 0.012

NME2 isoform 2 (UniProt P22392)
inactive: [1] 0.044 | [2] 0.021 | [3] -0.011 | [4] -0.053 | [5] 0.021 | [6] 0.069 | [7] -0.013 | [8] -0.032 | [9] 0.024 | [10] 0.023 | [11] -0.035 | [12] 0.019 | [13] 0.011 | [14] 0.016 | [15] -0.056 | [16] -0.038 | [17] -0.037 | [18] -0.074 | [19] -0.031 | [20] -0.021

NHP2 (UniProt Q9NX24)
inactive: [1] 0.115 | [2] 0.051 | [3] 0.031 | [4] 0.067 | [5] 0.058 | [6] 0.181 | [7] 0.085 | [8] 0.052 | [9] 0.021 | [10] 0.041 | [11] -0.023 | [12] -0.03 | [13] -0.042 | [14] -0.052 | [15] 0.131 | [16] -0.082 | [17] -0.056 | [18] -0.063 | [19] -0.007 | [20] -0.086

NEMF (UniProt O60524)
inactive: [1] -0.18 | [2] 0.028 | [3] 0.133 | [4] 0.276 | [5] 0.025 | [6] -0.19 | [7] 0.11 | [8] 0.408 | [9] -0.049 | [10] -0.092 | [11] 0.051 | [12] -0.043 | [13] -0.159 | [14] -0.095 | [15] 0.281 | [16] -0.032 | [17] -0.031 | [18] 0.116 | [19] 0.141 | [20] -0.006

NMI (UniProt Q13287)
inactive: [1] 0.005 | [2] 0.015 | [3] -0.023 | [4] -0.063 | [5] -0.029 | [6] 0.028 | [7] 0.017 | [8] -0.001 | [9] -0.014 | [10] 0.012 | [11] -0.017 | [12] 0.014 | [13] 0.012 | [14] 0.011 | [15] -0.038 | [16] -0.035 | [17] 0.008 | [18] -0.046 | [19] -0.02 | [20] 0.013

NFIA isoform 4 (UniProt Q12857)
inactive: [1] -0.02 | [2] 0.056 | [3] -0.033 | [4] 0.02 | [5] 0.069 | [6] 0.034 | [7] 0.015 | [8] 0.041 | [9] 0.028 | [10] 0.007 | [11] -0.069 | [12] 0.048 | [13] -0.011 | [14] 0.037 | [15] -0.001 | [16] -0.02 | [17] -0.026 | [18] -0.016 | [19] -0.186 | [20] -0.021

NIPSNAP3A (UniProt Q9UFN0)
inactive: [1] 0.062 | [2] 0.05 | [3] 0.051 | [4] -0.003 | [5] 0.002 | [6] 0.085 | [7] 0.02 | [8] -0.01 | [9] 0.006 | [10] -0.007 | [11] -0.001 | [12] 0.013 | [13] -0.002 | [14] -0.019 | [15] 0.015 | [16] 0.026 | [17] -0.02 | [18] -0.036 | [19] 0.026 | [20] 0.005

NENF (UniProt Q9UMX5)
inactive: [1] 0.071 | [2] -0.012 | [3] 0.019 | [4] -0.034 | [5] 0.003 | [6] 0.056 | [7] -0.01 | [8] -0.017 | [9] -0.019 | [10] 0.043 | [11] 0.005 | [12] -0.01 | [13] -0.035 | [14] -0.011 | [15] -0.105 | [16] -0.002 | [17] -0.057 | [18] -0.008 | [19] 0.057 | [20] 0.036

NFYA (UniProt P23511)
inactive: [1] 0.19 | [2] 0.064 | [3] 0.037 | [4] 0.026 | [5] -0.009 | [6] 0.024 | [7] 0.061 | [8] -0.023 | [9] -0.041 | [10] 0.331 | [11] -0.034 | [12] 0.026 | [13] -0.004 | [14] -0.055 | [15] -0.163 | [16] -0.021 | [17] -0.073 | [18] 0.031 | [19] 0.046 | [20] -0.051

NSMAF (UniProt Q92636)
inactive: [1] 0.03 | [2] 0.014 | [3] 0.021 | [4] 0.004 | [5] -0.003 | [6] -0.008 | [7] -0.008 | [8] 0.01 | [9] -0.007 | [10] -0.038 | [11] -0.004 | [12] 0.049 | [13] -0.006 | [14] -0.007 | [15] -0.027 | [16] -0.104 | [17] 0.021 | [18] 0.018 | [19] -0.025 | [20] -0.041

Quoted at random: 2 entries already listed, in no set order.
NIPA2 (UniProt Q8N8Q9)
inactive: [1] 0.033 | [2] 0.008 | [3] -0.058 | [4] 0.159 | [5] -0.081 | [6] 0.036 | [7] 0.053 | [8] -0.031 | [9] -0.106 | [10] -0.018 | [11] -0.181 | [12] -0.058 | [13] -0.024 | [14] 0.044 | [15] -0.057 | [16] -0.019 | [17] 0.018 | [18] -0.147 | [19] 0.031 | [20] -0.016

NFIA isoform 4 (UniProt Q12857)
inactive: [1] -0.02 | [2] 0.056 | [3] -0.033 | [4] 0.02 | [5] 0.069 | [6] 0.034 | [7] 0.015 | [8] 0.041 | [9] 0.028 | [10] 0.007 | [11] -0.069 | [12] 0.048 | [13] -0.011 | [14] 0.037 | [15] -0.001 | [16] -0.02 | [17] -0.026 | [18] -0.016 | [19] -0.186 | [20] -0.021

Next part.

NONO (UniProt Q15233)
inactive: [1] -0.162 | [2] -0.037 | [3] -0.075 | [4] 0.126 | [5] -0.017 | [6] -0.286 | [7] 0.271 | [8] 0.166 | [9] 0.027 | [10] -0.132 | [11] 0.026 | [12] -0.01 | [13] -0.056 | [14] -0.05 | [15] 0.347 | [16] 0.057 | [17] 0.073 | [18] 0.085 | [19] 0.236 | [20] -0.099

NPTN (UniProt Q9Y639)
inactive: [1] 0.039 | [2] 0.017 | [3] -0.004 | [4] -0.013 | [5] -0.094 | [6] 0.159 | [7] -0.006 | [8] -0.053 | [9] -0.038 | [10] 0.014 | [11] 0.011 | [12] 0.001 | [13] -0.033 | [14] -0.037 | [15] -0.053 | [16] 0.013 | [17] -0.086 | [18] -0.041 | [19] 0.047 | [20] 0.006

NRBP1 (UniProt Q9UHY1)
inactive: [1] -0.003 | [2] 0.008 | [3] 0.008 | [4] -0.047 | [5] 0 | [6] 0.013 | [7] -0.009 | [8] -0.014 | [9] -0.011 | [10] 0.012 | [11] 0.02 | [12] 0.035 | [13] -0.008 | [14] 0.022 | [15] -0.022 | [16] 0.057 | [17] -0.014 | [18] -0.02 | [19] 0.053 | [20] 0.025

NIT1 (UniProt Q86X76)
inactive: [1] 0.03 | [2] 0.044 | [3] 0.021 | [4] -0.028 | [5] 0 | [6] 0.048 | [7] -0.046 | [8] -0.015 | [9] 0.062 | [10] -0.032 | [11] -0.023 | [12] 0 | [13] 0.063 | [14] 0.002 | [15] 0.01 | [16] -0.051 | [17] 0 | [18] -0.068 | [19] 0.007 | [20] 0.013

Reference: the supplement of paper PMC10849652
